# Assay results taken from patent US12377074B2, “Treatment for Wolfram syndrome” (YALE UNIVERSITY, priority 2019, dated 2025).
# At least one compound was matched to its structure with a doubt left.
# Assays:
# Assay type in all cases: cell-based, rat
# INS-1 cells (WT) = experiment: Cell survival after high glucose, WT INS-1 cells (first set); details: 31 mM glucose 48 h, survival normalized to % survival at 1 mM glucose
# Protocol: (§1) Survival is normalized to % survival at 1 mM glucose.
# as §1
# WFS1 KO INS-1 cells = experiment: Cell survival after high glucose, WFS1 KO INS-1 cells (first set); details: 31 mM glucose 48 h, survival normalized to % survival at 1 mM glucose
# Protocol: as §1
# The concentration range for protection from cell death by high glucose in WFS1 KO cells is similar.
# WFS1-KO INS1 cells = experiment: CellTiter-Glo cell viability assay, WFS1-KO cells; details: 30 mM additional glucose (30G) 48 h, normalized to CTRL, 10 μM in FIG. 19C
# Protocol: CellTiter-Glo™ (CTG) assay (Promega) was used to quantify ATP-dependent bioluminescence as an indicator of cell viability. […] After treatment was completed, 100 μL of CTG solution was added to each well and 20 minutes later, reading was performed using a Tecan Infinite M1000 Pro microplate reader using the following setting: 5 s orbital shaking (3 mm, 216 rpm), followed by imaging in luminescence mode with 500 ms integration time.
# Because intracellular calcium is an important determinant of cell viability, we measured cell viability in WFS1-WT and WFS1-KO cells. A luminescent, ATP-based assay was used.
compound,measurement,setting,value
[Li] [lithium],cell survival after treatment with 31 mM glucose for 48 hours (glucose induced cell death),INS-1 cells (WT),no effect on survival
same,cell survival after treatment with 31 mM glucose for 48 hours (glucose induced cell death),WFS1 KO INS-1 cells,no effect on survival
same,cell viability after hyperglycemia,WFS1-KO INS1 cells,did not reverse
